In this experiment the target is DjlA variant with a C-terminal HA-tag (DjlA-HA) (Caulobacter crescentus). Put plainly: affinity purification with mass spectrometry; LC-MS/MS of DjlA-HA pull-downs (anti-HA affinity matrix) from soluble lysates of WT cells expressing DjlA-HA, grown with or without NAL (10 ug/mL); control WT without DjlA-HA.

Results are given in words; binding and its absence hold for the method and conditions named. Binding seen in cells or lysates may run through a third protein. Here binding means that the protein was enriched with, or labelled near, the bait; the list need not be complete.

As to AcrB (from UniProt A0A0H3CCS3), the binding result is recorded as “binds”.
